Measured values taken from PMC8058344, “ARIH1 signaling promotes anti-tumor immunity by targeting PD-L1 for proteasomal degradation” (Nature Communications, 2021).
No constants are given. Whether binding was seen depends on the method and setting. In cells and extracts the contact can be indirect. Some entries that bind do so weakly or less than the wild type.

The chains behind the UniProt entries cited, without tags or fusion partners. Residues count along the entry.
UniProt Q9NZQ7, residues 19-290: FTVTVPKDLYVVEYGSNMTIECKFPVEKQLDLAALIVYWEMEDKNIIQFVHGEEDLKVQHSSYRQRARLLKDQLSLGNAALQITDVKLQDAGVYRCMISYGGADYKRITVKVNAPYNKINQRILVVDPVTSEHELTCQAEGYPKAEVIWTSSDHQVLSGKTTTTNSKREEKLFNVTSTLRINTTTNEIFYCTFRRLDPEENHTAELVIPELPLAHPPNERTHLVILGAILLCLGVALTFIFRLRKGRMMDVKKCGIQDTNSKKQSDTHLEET
UniProt Q9Y4X5: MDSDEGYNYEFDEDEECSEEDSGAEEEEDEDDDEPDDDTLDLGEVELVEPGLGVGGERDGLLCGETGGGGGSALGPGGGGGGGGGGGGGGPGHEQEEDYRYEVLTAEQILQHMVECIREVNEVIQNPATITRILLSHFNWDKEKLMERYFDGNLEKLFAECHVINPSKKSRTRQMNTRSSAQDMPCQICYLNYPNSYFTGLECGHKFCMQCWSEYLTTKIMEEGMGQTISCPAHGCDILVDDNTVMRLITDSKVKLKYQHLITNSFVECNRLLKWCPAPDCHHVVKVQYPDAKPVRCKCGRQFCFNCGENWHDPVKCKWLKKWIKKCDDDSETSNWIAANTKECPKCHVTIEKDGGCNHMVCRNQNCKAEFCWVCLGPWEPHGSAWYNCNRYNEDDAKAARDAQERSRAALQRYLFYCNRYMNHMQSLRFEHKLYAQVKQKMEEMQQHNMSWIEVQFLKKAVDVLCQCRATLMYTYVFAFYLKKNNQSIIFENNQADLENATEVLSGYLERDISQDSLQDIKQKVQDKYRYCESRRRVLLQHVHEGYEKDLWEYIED
UniProt P49840: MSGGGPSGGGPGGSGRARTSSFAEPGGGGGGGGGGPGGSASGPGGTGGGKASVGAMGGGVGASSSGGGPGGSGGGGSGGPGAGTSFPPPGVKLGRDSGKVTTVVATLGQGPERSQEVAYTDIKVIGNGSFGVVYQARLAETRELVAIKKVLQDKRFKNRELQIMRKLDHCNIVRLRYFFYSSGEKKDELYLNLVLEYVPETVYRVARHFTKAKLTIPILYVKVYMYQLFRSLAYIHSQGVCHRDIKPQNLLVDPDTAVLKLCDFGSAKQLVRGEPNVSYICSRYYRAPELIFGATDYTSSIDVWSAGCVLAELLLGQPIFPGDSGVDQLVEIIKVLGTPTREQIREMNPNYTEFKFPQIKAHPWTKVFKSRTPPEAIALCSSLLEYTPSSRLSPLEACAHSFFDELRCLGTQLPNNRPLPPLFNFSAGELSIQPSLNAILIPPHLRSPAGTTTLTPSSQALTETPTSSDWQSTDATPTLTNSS

Key:
Flag-PD-L1 (WT) (human) [1] = biological target: Flag-PD-L1 (WT) (human) (UniProt Q9NZQ7); assay: co-IP; Flag-PD-L1 (WT or mutant) immunoprecipitated from transfected HEK293T lysates, blot for endogenous GSK3α/GSK3β or HA-ARIH1; RIPA buffer (1% Triton X-100, 100 mM Tris-HCl pH 8.8, 100 mM NaCl, 0.5 mM EDTA), 4 °C; cells with or without 10 μM ES-072, tunicamycin or 10 μM MG132
Flag-PD-L1 (WT) (human) [2] = biological target: Flag-PD-L1 (WT) (human) (UniProt Q9NZQ7); assay: proximity ligation; Duolink PLA in fixed HEK293T cells transfected with Flag-PD-L1, with or without 10 μM ES-072 for 12 h
HA-ARIH1 (WT) = HA-ARIH1 (WT) (UniProt Q9Y4X5); assay: co-IP; HEK293T cells transfected with HA-ARIH1 (HA-tagged empty vector as negative control); endogenous PD-L1 detected by blot

Substance: endogenous GSK3α (from UniProt P49840 1-483) (enzyme)
- binding (Flag-PD-L1 (WT) (human) [1]): binds
- binding (Flag-PD-L1 (WT) (human) [2]): binds

Substance: endogenous PD-L1 (from UniProt Q9NZQ7 19-290)
- binding (HA-ARIH1 (WT)): binds
